These results are taken from publication PMC8069214, “Synthesis, Biological Evaluation, and Molecular Modeling of Aza-Crown Ethers” (Molecules, 2021).

Protein sequences, listed by entry. Tags and fused reporters are not part of them.
UniProt P21462: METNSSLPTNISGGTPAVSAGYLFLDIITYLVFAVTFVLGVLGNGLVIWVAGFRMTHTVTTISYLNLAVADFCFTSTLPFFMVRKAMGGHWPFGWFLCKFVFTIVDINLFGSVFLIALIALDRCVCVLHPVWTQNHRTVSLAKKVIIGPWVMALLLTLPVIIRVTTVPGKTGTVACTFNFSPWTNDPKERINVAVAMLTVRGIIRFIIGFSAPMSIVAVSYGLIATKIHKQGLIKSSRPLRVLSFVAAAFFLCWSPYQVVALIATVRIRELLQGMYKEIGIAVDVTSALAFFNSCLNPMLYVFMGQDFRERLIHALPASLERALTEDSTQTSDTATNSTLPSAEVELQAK

The target in this assay is N-formyl peptide receptor 1 (human) (UniProt P21462). Description: flow cytometry on cells; competition binding: FPR1-HL60 cells preincubated with test compound 30 min at 4 °C, then 0.5 nM WKYMVm-FITC for 30 min at 4 °C, read without washing; controls 1 µM unlabeled fMLF or buffer; only the binder purified. Background: In flow cytometry, cells or beads pass a laser one at a time.

No constants are given. Whether binding was seen depends on the method and setting. Some results given as binding are weak or reduced against the parent protein; the word gives no strength.

As to WKYMVM (D-Met at position 6 (printed as m); FITC conjugated to the lysine residue) [WKYMVm-FITC (Trp-Lys-Tyr-Met-Val-D-Met with fluorescein isothiocyanate on the lysine residue)], the binding result is “binds”.
